Consider one substance from paper PMC8660890.

Sequences of proteins named here, by UniProt entry; tags and fusion partners are left off. Residues count along the entry.
UniProt Q99102, residues 29-5412: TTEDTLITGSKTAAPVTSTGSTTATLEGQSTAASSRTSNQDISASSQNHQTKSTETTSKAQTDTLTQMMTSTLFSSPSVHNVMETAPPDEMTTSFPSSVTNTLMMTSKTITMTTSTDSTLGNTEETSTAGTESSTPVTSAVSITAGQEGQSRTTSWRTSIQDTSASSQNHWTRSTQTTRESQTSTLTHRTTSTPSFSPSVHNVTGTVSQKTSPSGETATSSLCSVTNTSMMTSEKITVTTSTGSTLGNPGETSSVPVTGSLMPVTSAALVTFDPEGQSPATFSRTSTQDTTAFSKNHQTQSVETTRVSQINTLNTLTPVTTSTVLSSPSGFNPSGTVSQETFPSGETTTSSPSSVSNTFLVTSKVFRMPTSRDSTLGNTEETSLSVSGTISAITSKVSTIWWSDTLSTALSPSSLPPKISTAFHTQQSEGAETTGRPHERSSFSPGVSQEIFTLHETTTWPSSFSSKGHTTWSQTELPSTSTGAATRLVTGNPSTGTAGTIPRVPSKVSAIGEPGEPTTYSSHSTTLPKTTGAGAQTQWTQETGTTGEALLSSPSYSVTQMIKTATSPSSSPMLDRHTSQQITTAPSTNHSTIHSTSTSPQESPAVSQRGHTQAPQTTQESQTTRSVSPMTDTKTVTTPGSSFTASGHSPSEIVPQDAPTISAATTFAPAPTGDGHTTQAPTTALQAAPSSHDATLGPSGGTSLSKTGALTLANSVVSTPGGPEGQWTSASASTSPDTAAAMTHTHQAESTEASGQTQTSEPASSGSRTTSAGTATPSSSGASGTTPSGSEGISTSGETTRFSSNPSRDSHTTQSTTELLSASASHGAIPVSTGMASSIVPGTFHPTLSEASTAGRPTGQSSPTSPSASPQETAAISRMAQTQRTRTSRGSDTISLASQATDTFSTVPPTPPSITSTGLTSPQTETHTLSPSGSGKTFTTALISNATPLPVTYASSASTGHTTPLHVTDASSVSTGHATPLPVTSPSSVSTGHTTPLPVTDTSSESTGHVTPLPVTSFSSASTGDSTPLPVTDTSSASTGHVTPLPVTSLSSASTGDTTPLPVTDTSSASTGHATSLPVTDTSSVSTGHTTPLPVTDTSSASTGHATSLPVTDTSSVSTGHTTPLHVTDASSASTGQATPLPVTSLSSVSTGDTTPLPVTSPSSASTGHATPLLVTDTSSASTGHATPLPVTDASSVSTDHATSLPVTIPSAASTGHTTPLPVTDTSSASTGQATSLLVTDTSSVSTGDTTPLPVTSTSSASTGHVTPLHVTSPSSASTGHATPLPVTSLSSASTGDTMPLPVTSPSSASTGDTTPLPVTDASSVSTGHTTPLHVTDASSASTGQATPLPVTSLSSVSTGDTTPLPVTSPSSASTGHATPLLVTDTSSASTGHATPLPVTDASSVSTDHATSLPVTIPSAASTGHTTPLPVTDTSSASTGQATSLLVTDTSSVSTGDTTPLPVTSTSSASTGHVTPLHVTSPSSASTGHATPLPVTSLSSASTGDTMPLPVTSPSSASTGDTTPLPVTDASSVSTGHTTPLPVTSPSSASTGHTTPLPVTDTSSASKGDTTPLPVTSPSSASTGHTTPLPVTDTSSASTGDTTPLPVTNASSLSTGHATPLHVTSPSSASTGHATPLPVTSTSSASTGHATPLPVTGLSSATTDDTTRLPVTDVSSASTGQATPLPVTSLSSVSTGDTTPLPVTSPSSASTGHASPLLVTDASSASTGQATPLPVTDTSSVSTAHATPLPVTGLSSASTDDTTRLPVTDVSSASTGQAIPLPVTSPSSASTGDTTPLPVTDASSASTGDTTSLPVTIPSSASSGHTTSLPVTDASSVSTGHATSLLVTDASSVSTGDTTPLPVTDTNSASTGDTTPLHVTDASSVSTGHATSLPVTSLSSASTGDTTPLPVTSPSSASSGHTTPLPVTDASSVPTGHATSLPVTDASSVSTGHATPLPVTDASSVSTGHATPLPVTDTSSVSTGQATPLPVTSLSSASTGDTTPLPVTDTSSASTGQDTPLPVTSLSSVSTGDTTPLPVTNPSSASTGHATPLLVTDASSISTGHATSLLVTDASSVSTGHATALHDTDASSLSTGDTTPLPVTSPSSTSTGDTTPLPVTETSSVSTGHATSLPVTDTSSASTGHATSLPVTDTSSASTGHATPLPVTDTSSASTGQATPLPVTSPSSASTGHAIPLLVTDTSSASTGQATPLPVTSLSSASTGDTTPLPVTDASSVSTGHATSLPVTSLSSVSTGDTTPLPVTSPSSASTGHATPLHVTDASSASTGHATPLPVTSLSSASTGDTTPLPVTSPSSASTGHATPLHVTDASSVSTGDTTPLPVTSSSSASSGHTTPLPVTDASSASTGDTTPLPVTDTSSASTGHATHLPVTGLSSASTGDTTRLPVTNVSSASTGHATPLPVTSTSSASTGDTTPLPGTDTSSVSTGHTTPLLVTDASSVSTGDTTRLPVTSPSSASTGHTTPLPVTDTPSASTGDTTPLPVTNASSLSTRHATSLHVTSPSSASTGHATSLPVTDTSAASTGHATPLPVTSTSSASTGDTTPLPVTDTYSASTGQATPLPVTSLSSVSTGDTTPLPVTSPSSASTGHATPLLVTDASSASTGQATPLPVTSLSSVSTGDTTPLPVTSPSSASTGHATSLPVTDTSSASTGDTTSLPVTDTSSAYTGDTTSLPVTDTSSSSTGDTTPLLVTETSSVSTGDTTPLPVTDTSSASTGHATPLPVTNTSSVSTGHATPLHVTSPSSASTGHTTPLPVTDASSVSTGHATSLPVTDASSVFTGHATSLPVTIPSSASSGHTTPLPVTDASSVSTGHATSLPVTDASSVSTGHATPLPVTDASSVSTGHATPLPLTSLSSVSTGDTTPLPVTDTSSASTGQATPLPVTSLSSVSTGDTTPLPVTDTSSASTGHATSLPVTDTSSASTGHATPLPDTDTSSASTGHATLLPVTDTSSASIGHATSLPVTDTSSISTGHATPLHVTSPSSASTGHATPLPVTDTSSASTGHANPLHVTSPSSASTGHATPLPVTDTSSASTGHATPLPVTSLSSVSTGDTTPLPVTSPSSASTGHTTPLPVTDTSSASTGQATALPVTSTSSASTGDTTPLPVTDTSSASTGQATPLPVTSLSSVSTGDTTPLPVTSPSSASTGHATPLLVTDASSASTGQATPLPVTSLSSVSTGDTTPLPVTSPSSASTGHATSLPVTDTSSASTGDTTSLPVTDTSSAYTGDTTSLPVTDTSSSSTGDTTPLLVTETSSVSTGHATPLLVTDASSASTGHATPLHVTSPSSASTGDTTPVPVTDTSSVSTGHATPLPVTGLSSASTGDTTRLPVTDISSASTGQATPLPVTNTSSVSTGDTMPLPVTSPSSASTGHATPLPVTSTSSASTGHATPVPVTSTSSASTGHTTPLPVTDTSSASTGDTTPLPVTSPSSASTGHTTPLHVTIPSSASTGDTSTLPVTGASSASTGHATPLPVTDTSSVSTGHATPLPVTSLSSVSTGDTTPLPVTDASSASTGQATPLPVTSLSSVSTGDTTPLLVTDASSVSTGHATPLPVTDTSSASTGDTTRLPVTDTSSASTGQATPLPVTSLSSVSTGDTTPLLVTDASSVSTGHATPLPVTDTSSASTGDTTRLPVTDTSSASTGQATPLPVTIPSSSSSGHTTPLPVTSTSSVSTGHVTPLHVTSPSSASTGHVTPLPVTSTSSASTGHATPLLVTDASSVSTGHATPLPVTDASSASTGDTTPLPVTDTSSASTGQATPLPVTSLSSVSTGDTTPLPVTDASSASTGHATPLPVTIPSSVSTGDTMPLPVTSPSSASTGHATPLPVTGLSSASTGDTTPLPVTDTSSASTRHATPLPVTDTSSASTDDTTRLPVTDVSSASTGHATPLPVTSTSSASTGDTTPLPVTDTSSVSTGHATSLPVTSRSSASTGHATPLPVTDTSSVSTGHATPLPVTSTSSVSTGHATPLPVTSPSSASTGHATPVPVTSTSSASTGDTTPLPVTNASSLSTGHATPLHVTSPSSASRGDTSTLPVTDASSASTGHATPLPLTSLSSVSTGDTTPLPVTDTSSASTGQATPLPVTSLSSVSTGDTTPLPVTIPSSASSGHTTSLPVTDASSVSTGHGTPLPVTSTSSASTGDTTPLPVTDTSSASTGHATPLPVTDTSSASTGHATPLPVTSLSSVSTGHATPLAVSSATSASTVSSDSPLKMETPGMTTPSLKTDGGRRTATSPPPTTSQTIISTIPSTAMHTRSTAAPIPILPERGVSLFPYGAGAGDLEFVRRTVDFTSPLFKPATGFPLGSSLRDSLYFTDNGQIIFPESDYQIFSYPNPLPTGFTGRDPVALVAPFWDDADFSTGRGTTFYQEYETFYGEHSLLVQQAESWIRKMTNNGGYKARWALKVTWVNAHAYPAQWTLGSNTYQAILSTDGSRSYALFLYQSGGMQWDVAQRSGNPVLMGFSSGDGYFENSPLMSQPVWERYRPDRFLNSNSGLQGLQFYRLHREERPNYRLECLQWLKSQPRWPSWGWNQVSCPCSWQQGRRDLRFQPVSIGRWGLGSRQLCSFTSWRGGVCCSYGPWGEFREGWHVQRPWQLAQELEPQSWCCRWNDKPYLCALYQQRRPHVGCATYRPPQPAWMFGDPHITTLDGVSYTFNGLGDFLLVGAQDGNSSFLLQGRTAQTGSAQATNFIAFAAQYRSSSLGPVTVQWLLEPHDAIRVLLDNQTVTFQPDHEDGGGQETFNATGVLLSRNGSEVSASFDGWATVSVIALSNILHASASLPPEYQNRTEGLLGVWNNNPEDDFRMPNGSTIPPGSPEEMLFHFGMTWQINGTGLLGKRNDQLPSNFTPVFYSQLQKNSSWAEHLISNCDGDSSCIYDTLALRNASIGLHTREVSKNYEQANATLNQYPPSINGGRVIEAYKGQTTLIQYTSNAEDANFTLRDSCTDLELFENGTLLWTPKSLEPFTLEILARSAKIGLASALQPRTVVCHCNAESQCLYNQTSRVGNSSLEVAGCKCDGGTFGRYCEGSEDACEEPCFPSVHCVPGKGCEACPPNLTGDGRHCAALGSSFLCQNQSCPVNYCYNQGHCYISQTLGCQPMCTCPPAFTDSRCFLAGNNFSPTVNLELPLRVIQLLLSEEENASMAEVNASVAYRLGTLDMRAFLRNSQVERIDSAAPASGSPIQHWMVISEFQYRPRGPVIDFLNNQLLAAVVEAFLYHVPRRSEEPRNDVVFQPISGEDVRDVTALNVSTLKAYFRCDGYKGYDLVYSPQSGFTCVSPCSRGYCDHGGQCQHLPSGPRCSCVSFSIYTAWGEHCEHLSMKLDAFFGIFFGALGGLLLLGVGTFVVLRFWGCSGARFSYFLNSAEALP
UniProt P15311: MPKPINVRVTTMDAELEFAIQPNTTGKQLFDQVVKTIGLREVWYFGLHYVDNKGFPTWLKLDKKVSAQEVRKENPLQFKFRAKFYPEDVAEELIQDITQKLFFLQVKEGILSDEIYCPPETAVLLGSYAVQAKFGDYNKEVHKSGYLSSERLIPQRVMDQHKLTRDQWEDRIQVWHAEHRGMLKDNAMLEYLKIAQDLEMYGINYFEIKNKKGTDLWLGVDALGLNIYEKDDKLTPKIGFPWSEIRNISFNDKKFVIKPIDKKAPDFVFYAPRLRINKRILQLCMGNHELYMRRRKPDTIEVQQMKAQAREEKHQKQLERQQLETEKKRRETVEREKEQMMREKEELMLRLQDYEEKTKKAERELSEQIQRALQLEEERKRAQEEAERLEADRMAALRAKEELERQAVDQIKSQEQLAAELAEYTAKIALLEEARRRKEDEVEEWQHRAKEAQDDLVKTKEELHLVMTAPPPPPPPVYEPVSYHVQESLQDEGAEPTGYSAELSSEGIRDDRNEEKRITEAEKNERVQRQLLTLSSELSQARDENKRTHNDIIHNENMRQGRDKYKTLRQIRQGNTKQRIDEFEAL

This assay concerns the target endogenous MUC4 (human (endogenous in CD18/HPAF)) (UniProt Q99102). Nature of the assay: co-IP; CD18/HPAF lysate, immunoprecipitation with anti-MUC4β mAb 6E8 and protein A/G agarose beads; immunoblot for Ezrin.

These are yes or no findings as the source states them, for the method shown. Binding seen in cells or lysates may run through a third protein. Some entries that bind do so weakly or less than the wild type.

For Ezrin (from UniProt P15311 1-586), the binding result is listed as “binds”.
